These are yes or no findings as the source states them, for the method shown. Binding seen in cells or lysates may run through a third protein. Some results given as binding are weak or reduced against the parent protein; the word gives no strength. Tags and fused reporters may be left off the sequences shown.
Legend:
Gab 1 (human) [1] = biological target: T1, Gab 1 (human) (UniProt Q13480); test: amylose pull-down from pervanadate-treated T-47D lysate, anti-Gab 1 immunoblot
T1 sequence (chain, from pervanadate-treated cells; phosphorylated sites not stated): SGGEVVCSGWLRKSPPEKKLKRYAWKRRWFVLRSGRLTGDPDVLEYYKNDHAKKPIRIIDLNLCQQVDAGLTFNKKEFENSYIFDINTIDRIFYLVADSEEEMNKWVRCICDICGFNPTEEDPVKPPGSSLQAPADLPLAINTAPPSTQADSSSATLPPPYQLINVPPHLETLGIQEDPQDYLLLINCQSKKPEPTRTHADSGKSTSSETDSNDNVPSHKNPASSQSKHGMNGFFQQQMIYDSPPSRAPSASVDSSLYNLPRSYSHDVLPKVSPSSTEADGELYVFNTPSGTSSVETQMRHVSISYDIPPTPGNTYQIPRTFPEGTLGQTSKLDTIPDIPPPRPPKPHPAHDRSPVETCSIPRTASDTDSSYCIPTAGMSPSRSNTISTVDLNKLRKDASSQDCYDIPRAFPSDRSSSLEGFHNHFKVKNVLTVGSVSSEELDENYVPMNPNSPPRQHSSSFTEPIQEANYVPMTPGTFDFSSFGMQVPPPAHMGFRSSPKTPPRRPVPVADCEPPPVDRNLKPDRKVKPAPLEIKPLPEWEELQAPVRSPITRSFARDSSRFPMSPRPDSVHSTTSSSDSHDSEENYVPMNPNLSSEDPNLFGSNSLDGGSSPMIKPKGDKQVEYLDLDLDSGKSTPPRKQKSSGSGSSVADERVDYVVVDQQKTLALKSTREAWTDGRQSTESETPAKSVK

Sequences of proteins named here, by UniProt entry; tags and fusion partners are left off. A change or cut given only in a name is not applied to a line headed by its entry.
UniProt P08581: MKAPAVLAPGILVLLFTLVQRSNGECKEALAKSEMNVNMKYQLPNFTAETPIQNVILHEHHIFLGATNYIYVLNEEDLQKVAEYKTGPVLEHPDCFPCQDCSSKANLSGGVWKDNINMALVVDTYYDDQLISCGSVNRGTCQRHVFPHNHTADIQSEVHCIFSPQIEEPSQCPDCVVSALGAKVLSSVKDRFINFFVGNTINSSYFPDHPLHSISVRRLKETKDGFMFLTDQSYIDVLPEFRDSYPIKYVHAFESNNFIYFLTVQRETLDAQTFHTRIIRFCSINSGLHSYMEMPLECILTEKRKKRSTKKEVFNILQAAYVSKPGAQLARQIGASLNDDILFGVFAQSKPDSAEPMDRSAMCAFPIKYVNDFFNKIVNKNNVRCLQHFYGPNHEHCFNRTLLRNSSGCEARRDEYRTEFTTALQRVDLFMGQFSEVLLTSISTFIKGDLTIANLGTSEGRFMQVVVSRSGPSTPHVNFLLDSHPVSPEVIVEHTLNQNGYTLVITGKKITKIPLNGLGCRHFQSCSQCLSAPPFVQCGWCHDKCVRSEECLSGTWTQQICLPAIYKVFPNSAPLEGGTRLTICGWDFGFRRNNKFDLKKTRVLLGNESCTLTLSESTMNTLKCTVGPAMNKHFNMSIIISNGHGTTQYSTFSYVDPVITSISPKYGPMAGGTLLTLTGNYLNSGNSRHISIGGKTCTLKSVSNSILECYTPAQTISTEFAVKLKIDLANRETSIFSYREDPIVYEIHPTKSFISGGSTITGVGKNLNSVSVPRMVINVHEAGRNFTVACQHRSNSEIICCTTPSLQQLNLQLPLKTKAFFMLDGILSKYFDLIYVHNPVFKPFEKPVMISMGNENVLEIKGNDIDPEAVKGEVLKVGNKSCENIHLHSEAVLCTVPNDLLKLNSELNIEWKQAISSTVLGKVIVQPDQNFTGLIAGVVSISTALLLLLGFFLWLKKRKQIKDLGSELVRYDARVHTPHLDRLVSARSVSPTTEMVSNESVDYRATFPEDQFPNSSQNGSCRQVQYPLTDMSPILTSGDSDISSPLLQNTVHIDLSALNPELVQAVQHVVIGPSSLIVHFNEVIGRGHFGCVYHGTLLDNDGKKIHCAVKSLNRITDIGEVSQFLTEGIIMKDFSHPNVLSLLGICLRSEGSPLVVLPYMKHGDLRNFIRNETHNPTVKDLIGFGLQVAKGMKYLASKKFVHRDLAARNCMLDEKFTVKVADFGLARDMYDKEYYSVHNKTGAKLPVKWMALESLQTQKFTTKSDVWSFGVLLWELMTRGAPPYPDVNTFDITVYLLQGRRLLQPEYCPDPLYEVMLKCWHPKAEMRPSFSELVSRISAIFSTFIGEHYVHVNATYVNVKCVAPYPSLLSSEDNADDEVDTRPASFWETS
UniProt P35222: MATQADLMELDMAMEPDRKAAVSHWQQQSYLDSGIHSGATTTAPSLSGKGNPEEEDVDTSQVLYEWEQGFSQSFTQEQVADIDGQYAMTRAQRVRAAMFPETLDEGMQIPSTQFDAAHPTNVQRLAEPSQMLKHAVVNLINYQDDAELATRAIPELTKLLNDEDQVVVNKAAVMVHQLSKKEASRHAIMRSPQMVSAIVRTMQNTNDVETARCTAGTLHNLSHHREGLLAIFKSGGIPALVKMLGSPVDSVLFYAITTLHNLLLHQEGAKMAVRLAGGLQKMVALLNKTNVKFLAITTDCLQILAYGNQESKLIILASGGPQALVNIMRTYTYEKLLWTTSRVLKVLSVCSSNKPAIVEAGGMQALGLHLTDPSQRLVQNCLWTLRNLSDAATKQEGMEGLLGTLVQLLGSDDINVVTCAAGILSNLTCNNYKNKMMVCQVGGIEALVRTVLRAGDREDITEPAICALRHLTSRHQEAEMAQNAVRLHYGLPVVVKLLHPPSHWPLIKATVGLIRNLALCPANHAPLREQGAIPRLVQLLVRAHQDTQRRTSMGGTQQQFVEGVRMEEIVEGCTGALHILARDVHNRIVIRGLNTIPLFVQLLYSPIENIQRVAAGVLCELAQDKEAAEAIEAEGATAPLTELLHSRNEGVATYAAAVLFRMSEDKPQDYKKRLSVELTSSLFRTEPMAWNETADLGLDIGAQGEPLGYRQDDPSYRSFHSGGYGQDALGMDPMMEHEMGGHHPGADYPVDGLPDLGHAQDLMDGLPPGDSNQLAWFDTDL

Gab 1 (human) [2] = biological target: T1, Gab 1 (human); test: amylose pull-down from pervanadate-treated T-47D/Met lysate, anti-Gab 1 immunoblot
plakoglobin (human) = biological target: T2, plakoglobin (human) (UniProt P14923); test: amylose pull-down from pervanadate-treated T-47D lysate, anti-plakoglobin immunoblot
T2 sequence: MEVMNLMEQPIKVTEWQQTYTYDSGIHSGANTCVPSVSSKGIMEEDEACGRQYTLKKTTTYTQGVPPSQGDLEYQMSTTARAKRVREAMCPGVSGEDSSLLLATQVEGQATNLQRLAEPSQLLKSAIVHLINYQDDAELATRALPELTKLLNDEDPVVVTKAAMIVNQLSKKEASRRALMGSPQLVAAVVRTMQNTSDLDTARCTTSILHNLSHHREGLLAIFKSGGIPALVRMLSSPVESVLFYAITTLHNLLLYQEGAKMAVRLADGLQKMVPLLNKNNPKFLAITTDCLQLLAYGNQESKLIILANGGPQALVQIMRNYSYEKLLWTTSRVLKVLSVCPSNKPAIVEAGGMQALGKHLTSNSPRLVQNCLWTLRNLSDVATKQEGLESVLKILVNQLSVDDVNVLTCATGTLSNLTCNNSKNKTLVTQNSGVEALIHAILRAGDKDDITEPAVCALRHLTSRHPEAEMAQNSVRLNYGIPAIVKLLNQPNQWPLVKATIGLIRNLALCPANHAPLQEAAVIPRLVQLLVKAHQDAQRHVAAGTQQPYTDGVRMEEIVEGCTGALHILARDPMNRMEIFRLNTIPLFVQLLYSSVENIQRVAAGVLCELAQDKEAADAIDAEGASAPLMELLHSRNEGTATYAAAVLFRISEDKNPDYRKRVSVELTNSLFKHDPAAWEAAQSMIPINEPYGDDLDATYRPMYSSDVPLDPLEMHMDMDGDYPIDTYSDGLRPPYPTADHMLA

[3] = biological target: Met, the HGF/SF receptor (Homo sapiens (Human)) (UniProt P08581); test: amylose pull-down from pervanadate-treated T-47D/Met lysate, anti-Met immunoblot
[4] = biological target: Met, the HGF/SF receptor (Homo sapiens (Human)) (UniProt P08581); test: amylose pull-down from pervanadate-treated MDA-MB-231 lysate, immunoblot
[5] = biological target: Met, the HGF/SF receptor (Homo sapiens (Human)) (UniProt P08581); test: amylose pull-down, immunoblot (told again from the preceding Examples)
β-catenin (human) = β-catenin (human) (UniProt P35222); test: amylose pull-down from pervanadate-treated T-47D lysate, anti-β-catenin immunoblot

Measured: binding

B1: MBP.DEP-1(DA) (enzyme, not shown: large carriers; small tags and cut ends)
chain: RKKRKDAKNNEVSFSQIKPKKSKLIRVENFEAYFKKQQADSNCGFAEEYEDLKLVGISQPKYAAELAENRGKNRYNNVLPYDISRVKLSVQTHSTDDYINANYMPGYHSKKDFIATQGPLPNTLKDFWRMVWEKNVYAIIMLTKCVEQGRTKCEEYWPSKQAQDYGDITVAMTSEIVLPEWTIRDFTVKNIQTSESHPLRQFHFTSWPAHGVPDTTDLLINFRYLVRDYMKQSPPESPILVHCSAGVGRTGTFIAIDRLIYQIENENTVDVYGIVYDLRMHRPLMVQTEDQYVFLNQCVLDIVRSQKDSKVDLIYQNTTAMTIYENLAPVTTFGKTNGYIA
binds: Gab 1 (human) [1] | Gab 1 (human) [2] | plakoglobin (human) | [3] | [4] | [5] | β-catenin (human)

B2: MBP.DEP-1 (enzyme, not shown: large carriers)
chain: RKKRKDAKNNEVSFSQIKPKKSKLIRVENFEAYFKKQQADSNCGFAEEYEDLKLVGISQPKYAAELAENRGKNRYNNVLPYDISRVKLSVQTHSTDDYINANYMPGYHSKKDFIATQGPLPNTLKDFWRMVWEKNVYAIIMLTKCVEQGRTKCEEYWPSKQAQDYGDITVAMTSEIVLPEWTIRDFTVKNIQTSESHPLRQFHFTSWPDHGVPDTTDLLINFRYLVRDYMKQSPPESPILVHCSAGVGRTGTFIAIDRLIYQIENENTVDVYGIVYDLRMHRPLMVQTEDQYVFLNQCVLDIVRSQKDSKVDLIYQNTTAMTIYENLAPVTTFGKTNGYIA
binds: plakoglobin (human) | β-catenin (human)
